Data as given in patent US20250198977A1, “DETECTION METHOD, DRIED ALGAE MANUFACTURING METHOD, DRIED ALGAE, AND DRIED ALGAE QUALITY MANAGEMENT METHOD” (priority 2022, published 2025).

Experiments:
Assay in all cases: Detection of chemical substances by delayed luminescence (DFI) of rehydrated L-dried matter
Assay type in all cases: cell-based
Settings in all cases: ** P < 0.01
[1] = test system: L-dried matter of Cyanobium sp. NIES-981
Protocol: (§1) Various kinds of the L-dried matter obtained in the above-described cryo vial, and test water (water containing the chemical substances listed below at the concentrations (w/v) shown in Table 7) were prepared.
(§2) (metal mixed solution which was prepared by simulation based on formulation of a rock eluate from a core sample collected during a survey voyage of “Chikyu” by the Japan Agency for Marine-Earth Science and Technology; mainly containing lead and zinc (Yamagishi et al. Ecotoxicology (2018) 27:1303-1309)) • Copper • Zinc • Lead • Arsenic: in NIES-35, NIES-969, and NIES-2885, test water containing As(V) at 1 ppm (w/v) was also used for examination.
(§3) In a case of tests using freshwater algae, distilled water was used as the test water or control water, and in a case of tests using marine algae, filtered and sterilized seawater was used as the test water or control water.
(§4) Using a cuvette as a measurement container, 100 μL of the above-described cell suspension was dried to obtain 1 unit of the L-dried matter, and resuspended (rehydrated) in 3.5 mL of test water or control water.
(§5) After the rehydration, the L-dried matter and the test water or control water were rapidly and thoroughly mixed by pipetting to obtain a measurement sample (measurement object).
(§6) The sample was set in a weak luminescence measurement device (manufactured by Hamamatsu Photonics K.K., weak luminescence coefficient device, Type-7100). After exposure with excitation light from a light source attached to the device, delayed luminescence was measured immediately after a point of time of the rehydration (within 30 seconds), 15 minutes later, 30 minutes later, 60 minutes later, and 90 minutes later. The measurement time for each delayed luminescence was set to 10 seconds.
(§7) The sum of amounts of delayed luminescence (photon count) measured over 10 seconds was calculated and defined as the delayed fluorescence integral (DFI). In addition, for the sample after the rehydration, an absorbance at a wavelength of 600 nm with an optical path length of 1 cm was simultaneously measured. The DFI value per cell number of the L-dried matter was obtained by dividing the DFI by the value (DFI/OD600).

[2] = test system: L-dried matter of Prochlorococcus sp. NIES-2885
Protocol: as §1, §2, §3, §4, §5, §6, §7

[3] = test system: L-dried matter of Raphidocelis subcapitata NIES-35
Protocol: as §1, §2, §3, §4, §5, §6, §7

[4] = test system: L-dried matter of Synechococcus sp. NIES-969
Protocol: as §1, §2, §3, §4, §5, §6, §7

**Q.** Which shortest detection time ([1]; HA 50 μM) does the source give for NO [HA, Hydroxylamine, reference compound] here?
**A.** The shortest detection time was 0 min.

**Q.** What about the shortest detection time ([2]; HA 50 μM) of the same molecule?
**A.** Its shortest detection time is 0 min.

**Q.** And the shortest detection time ([3]; HA 50 μM)?
**A.** The shortest detection time was 15 min.

**Q.** What about the shortest detection time ([4]; HA 50 μM) of the same molecule?
**A.** Its shortest detection time is 0 min.

**Q.** [Cu+2] [Cu^2+, Copper] was tested. Which shortest detection time ([1]; Cu^2+ 1 ppm) did it give?
**A.** Its shortest detection time is 15 min.

**Q.** What about the shortest detection time ([2]; Cu^2+ 1 ppm) of the same molecule?
**A.** The shortest detection time was 0 min.

**Q.** What about the shortest detection time ([3]; Cu^2+ 1 ppm) of the same molecule?
**A.** The shortest detection time was 15 min.

**Q.** What about the shortest detection time ([4]; Cu^2+ 1 ppm) of the same molecule?
**A.** Its shortest detection time is 15 min.

**Q.** Which shortest detection time ([1]; Pb^2+ 1 ppm) does the source give for [Pb+2] [Pb^2+, Lead] here?
**A.** Its shortest detection time is 15 min.

**Q.** And the shortest detection time ([2]; Pb^2+ 1 ppm)?
**A.** The shortest detection time was 15 min.

**Q.** And the shortest detection time ([3]; Pb^2+ 1 ppm)?
**A.** The shortest detection time was 15 min.

**Q.** What about the shortest detection time ([4]; Pb^2+ 1 ppm) of the same molecule?
**A.** Its shortest detection time is 15 min.

**Q.** What does the source list for CN(C)C(=O)Nc1ccc(Cl)c(Cl)c1 [DCMU, 3-(3,4-dichlorophenyl)-1,1-dimethylurea, reference compound]?
**A.** shortest detection time ([1]; DCMU 1 μM): 0 min; shortest detection time ([2]; DCMU 1 μM): 0 min; shortest detection time ([3]; DCMU 1 μM): 15 min; shortest detection time ([4]; DCMU 1 μM): 0 min

**Q.** How did the shortest detection time ([1]; Zn^2+ 0.5 ppm) turn out when [Zn+2] [Zn^2+, Zinc] was run?
**A.** The shortest detection time was 15 min.

**Q.** What about the shortest detection time ([1]; Zn^2+ 1 ppm) of the same molecule?
**A.** Its shortest detection time is 15 min.

**Q.** What about the shortest detection time ([2]; Zn^2+ 0.5 ppm) of the same molecule?
**A.** The shortest detection time was 0 min.

**Q.** And the shortest detection time ([2]; Zn^2+ 1 ppm)?
**A.** Its shortest detection time is 30 min.

**Q.** What about the shortest detection time ([3]; Zn^2+ 0.5 ppm) of the same molecule?
**A.** Its shortest detection time is 15 min.

**Q.** And the shortest detection time ([3]; Zn^2+ 1 ppm)?
**A.** Its shortest detection time is 15 min.

**Q.** What about the shortest detection time ([4]; Zn^2+ 0.5 ppm) of the same molecule?
**A.** The shortest detection time was 15 min.

**Q.** What about the shortest detection time ([4]; Zn^2+ 1 ppm) of the same molecule?
**A.** The shortest detection time was 60 min.
